PubChem BioAssay AID504793 – Drosophila RNAi Screening Center, 2011

Test: 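Genes required for cells to halt at G2/M after double-strand DNA breaks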 (primary screen)
Cells: Drosophila S2R+ cells
Knock-down reagent: long dsRNA against Drosophila genes, about 0.25 µg dsRNA per well
Timing: 4 days of dsRNA, then 4 hours of drug before read-out
Treatment: doxorubicin 0.5 µM for 4 hours to cause double-strand breaks, in cells also given a low, harmless dose of dsRNA against nbs to sensitise the assay
Measured: 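Mitotic index as the number of phospho-histone H3-positive cells in each well following doxorubicin, given as raw counts without normalisation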
Reading the numbers: mitotic cells: higher = more cells in mitosis, weaker G2 arrest
Active means: 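Genes are called active only when high mitotic counts were reproduced with independent dsRNAs and mitosis was checked for delay without damage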
Calls: active = confirmed in follow-up tests; inactive = not confirmed
The deposit covers about 23,000 reagents; shown is an unselected part of those that have a named target and a result. Of all reagents, 62 (0.27%) are marked active. 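Calls come from follow-up tests whose scores are not deposited, so confirmed genes may have low counts here; counts are not normalised per plate.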 The raw values are shown without normalisation. Entries without a mark were called inactive. A plus sign joins genes that one reagent is predicted to hit.

gene knocked down | amplicon | mitotic cells, replicate 1
CG8149 (GeneID 41137) | DRSC16391 | 4
crb (GeneID 42896) | DRSC16927 | 6
crb (GeneID 42896) | DRSC39156 | 13
Marcal1 (GeneID 33709) | DRSC02718 | 4
Osi1 (GeneID 40752) | DRSC12271 | 5
Jon65Aii (GeneID 38684) | DRSC10665 | 4
CG12782 (GeneID 37685) | DRSC04127 | 8
Alms1b + Alms1a | DRSC18559 | 10
Alms1b + Alms1a | DRSC27416 | 6
Amacr (GeneID 35337) | DRSC03198 | 5
CG3330 (GeneID 43296) | DRSC15477 | 13
daed (GeneID 33398) | DRSC00299 | 7
CG8159 (GeneID 41040) | DRSC16392 | 4
CG8159 (GeneID 41040) | DRSC27425 | 6
kermit (GeneID 46027) | DRSC06074 | 7
kermit (GeneID 46027) | DRSC25874 | 8
CG30002 (GeneID 246384) | DRSC05182 | 1
CG30002 (GeneID 246384) | DRSC24738 | 14
CG10959 (GeneID 31743) | DRSC17769 | 8
CG10959 (GeneID 31743) | DRSC29120 | 6
CG8419 (GeneID 34118) | DRSC03087 | 1
CG43333 (GeneID 34830) | DRSC23265 | 10
CG43333 (GeneID 34830) | DRSC27202 | 3
CG32856 (GeneID 318251) | DRSC13124 | 9
CG32856 (GeneID 318251) | DRSC29746 | 10
CG6462 (GeneID 38681) | DRSC10641 | 3
CG6462 (GeneID 38681) | DRSC24608 | 2
CG4069 (GeneID 39437) | DRSC10396 | 8
epsilonCOP (GeneID 33908) | DRSC02003 | 6
epsilonCOP (GeneID 33908) | DRSC26466 | 9
CG10505 (GeneID 37428) | DRSC04075 | 8
CG3036 (GeneID 33695) | DRSC00260 | 19
CG3036 (GeneID 33695) | DRSC00562 | 5
CG3036 (GeneID 33695) | DRSC24856 | 7
Camp (GeneID 36948) | DRSC07004 | 4
Fis1 (GeneID 49892) | DRSC07772 | 10
HLH4C (GeneID 31397) | DRSC18670 | 4
HLH4C (GeneID 31397) | DRSC21322 | 7
HLH4C (GeneID 31397) | DRSC25228 | 2
CG9743 (GeneID 43593) | DRSC16552 | 6
CG9743 (GeneID 43593) | DRSC28943 | 1
CG31917 + Tfb5 | DRSC02362 | 9
CG31917 + Tfb5 | DRSC02363 | 5
su(Hw) (GeneID 41740) | DRSC17074 | 15
Ptth (GeneID 33238) | DRSC00356 | 1
CG10064 (GeneID 38761) | DRSC09689 | 5
aru (GeneID 33268) | DRSC00802 | 2
aru (GeneID 33268) | DRSC22019 | 9
CG31404 (GeneID 318714) | DRSC15497 | 8
CG31404 (GeneID 318714) | DRSC28438 | 2
Mco1 (GeneID 34258) | DRSC02720 | 6
P5cr-2 (GeneID 42106) | DRSC15889 | 11
CG45002 (GeneID 32688) | DRSC20144 | 5
l(2)k09022 (GeneID 33960) | DRSC02108 | 10
Exo84 (GeneID 43163) | DRSC15965 | 6
dgrn (GeneID 40725) | DRSC12154 | 10
CG13359 (GeneID 31028) | DRSC18539 | 11
CG13359 (GeneID 31028) | DRSC26791 | 6
Arpc3B (GeneID 32696) | DRSC20126 | 16
Arpc3B (GeneID 32696) | DRSC28523 | 1
Spt3 (GeneID 41461) | DRSC15465 | 11
Spt3 (GeneID 41461) | DRSC25502 | 3
CG10383 (GeneID 35123) | DRSC02050 | 11
CG10383 (GeneID 35123) | DRSC29310 | 5
CG6652 (GeneID 39905) | DRSC10686 | 6
CG6652 (GeneID 39905) | DRSC28835 | 8
5-HT1A (GeneID 37196) | DRSC05030 | 3
5-HT1A (GeneID 37196) | DRSC26404 | 5
Tsp42El (GeneID 35622) | DRSC06186 | 4
Alg7 (GeneID 34711) | DRSC02833 | 3
Alg7 (GeneID 34711) | DRSC02834 | 6
CG9240 (GeneID 32505) | DRSC20177 | 7
Hml (GeneID 39529) | DRSC11183 | 6
CG11808 (GeneID 36687) | DRSC06088 | 7
CG11808 (GeneID 36687) | DRSC27380 | 6
CG1075 (retired record) (GeneID 40742) | DRSC12144 | 5
Sgsh (GeneID 42266) | DRSC14771 | 4
bi (GeneID 31379) | DRSC18742 | 8
bi (GeneID 31379) | DRSC28848 | 5
Orct2 (GeneID 42890) | DRSC14613 | 10
Orct2 (GeneID 42890) | DRSC24714 | 9
Osi18 (GeneID 40775) | DRSC12181 | 5
CG7745 (GeneID 36210) | DRSC23103 | 8
CG7745 (GeneID 36210) | DRSC29591 | 2
atl (GeneID 42934) | DRSC16089 | 8
atl (GeneID 42934) | DRSC26241 | 6

Records listed so far whose target name starts with D or d:
gene knocked down | amplicon | mitotic cells, replicate 1
daed (GeneID 33398) | DRSC00299 | 7
dgrn (GeneID 40725) | DRSC12154 | 10

The list goes on:
gene knocked down | amplicon | mitotic cells, replicate 1
CG13059 (GeneID 39803) | DRSC09942 | 10
CAH3 (GeneID 31804) | DRSC17776 | 9
bbx + waw | DRSC20575 | 6
bbx + waw | DRSC20589 | 4
Ent1 (GeneID 33207) | DRSC00330 | 4
ND-24L (GeneID 39926) | DRSC10650 | 6
ND-24L (GeneID 39926) | DRSC28201 | 4
Drsl6 (GeneID 38416) | DRSC08161 | 3
sqa (GeneID 36002) | DRSC06693 | 2
sqa (GeneID 36002) | DRSC21635 | 5
Lgr4 (GeneID 5740505) | DRSC18970 | 8
Lgr4 (GeneID 5740505) | DRSC19884 | 10
Lgr4 (GeneID 5740505) | DRSC24434 | 11
Odj (GeneID 42145) | DRSC16234 | 10
CG16779 (GeneID 41134) | DRSC15153 | 1
Arp6 (GeneID 32514) | DRSC19326 | 2
Arc2 (GeneID 36597) | DRSC06436 | 5
Arc2 (GeneID 36597) | DRSC28707 | 4
ntc (GeneID 38443) | DRSC08166 | 8
CG4360 (GeneID 42413) | DRSC15566 | 5
CG4360 (GeneID 42413) | DRSC30049 | 6
Ppt2 (GeneID 34564) | DRSC02786 | 1
Ppt2 (GeneID 34564) | DRSC26027 | 7
Ppcs (GeneID 42295) | DRSC14127 | 7
Or85e (retired record) (GeneID 3772269) | DRSC16768 | 3
CG17806 (GeneID 42142) | DRSC15276 | 6
RpL22-like (GeneID 37684) | DRSC04582 | 10
Srp19 (GeneID 38815) | DRSC11288 | 8
Srp19 (GeneID 38815) | DRSC24706 | 4
SmydA-8 (GeneID 31200) | DRSC22064 | 9
SmydA-8 (GeneID 31200) | DRSC22263 | 7
Cyt-c1L (GeneID 43457) | DRSC14860 | 10
Cyt-c1L (GeneID 43457) | DRSC22096 | 4
Cyt-c1L (GeneID 43457) | DRSC28229 | 5
CG15529 (GeneID 43584) | DRSC15066 | 12
CG12479 (GeneID 50344) | DRSC19459 | 9
Gpdh3 (GeneID 42624) | DRSC13561 | 16
Gpdh3 (GeneID 42624) | DRSC15325 | 12
CG42399 (GeneID 33176) | DRSC00322 | 3
CG42399 (GeneID 33176) | DRSC00661 | 5
betaTub60D (GeneID 37888) | DRSC04673 | 3
betaTub60D (GeneID 37888) | DRSC22218 | 5
betaTub60D (GeneID 37888) | DRSC23872 | 5
tay (GeneID 32547) | DRSC20142 | 7
PTP-ER (GeneID 37461) | DRSC04636 | 7
PTP-ER (GeneID 37461) | DRSC23325 | 10
PTP-ER (GeneID 37461) | DRSC28263 | 5
RpS25 (GeneID 41343) | DRSC16837 | 4
RpS25 (GeneID 41343) | DRSC29990 | 7
CG15820 (GeneID 38277) | DRSC08480 | 2
CG15820 (GeneID 38277) | DRSC27847 | 8
BomT2 (GeneID 50208) | DRSC06631 | 5
ND-B12 (GeneID 37466) | DRSC04060 | 8
Rev1 (GeneID 38079) | DRSC08264 | 7
